Laboratory results published in publication doi:10.1101/2022.10.12.511875.
Read-outs that look alike come from different tables or passages of the source. No constants are given. Whether binding was seen depends on the method and setting. For some assays here: Binding seen in cells or lysates may run through a third protein. Some results given as binding are weak or reduced against the parent protein; the word gives no strength. For some assays here: Tags and fused reporters may be left off the sequences shown.

Sequences of proteins named here, by UniProt entry; tags and fusion partners are left off. A change or cut given only in a name is not applied to a line headed by its entry. Residues count along the entry.
UniProt O04921: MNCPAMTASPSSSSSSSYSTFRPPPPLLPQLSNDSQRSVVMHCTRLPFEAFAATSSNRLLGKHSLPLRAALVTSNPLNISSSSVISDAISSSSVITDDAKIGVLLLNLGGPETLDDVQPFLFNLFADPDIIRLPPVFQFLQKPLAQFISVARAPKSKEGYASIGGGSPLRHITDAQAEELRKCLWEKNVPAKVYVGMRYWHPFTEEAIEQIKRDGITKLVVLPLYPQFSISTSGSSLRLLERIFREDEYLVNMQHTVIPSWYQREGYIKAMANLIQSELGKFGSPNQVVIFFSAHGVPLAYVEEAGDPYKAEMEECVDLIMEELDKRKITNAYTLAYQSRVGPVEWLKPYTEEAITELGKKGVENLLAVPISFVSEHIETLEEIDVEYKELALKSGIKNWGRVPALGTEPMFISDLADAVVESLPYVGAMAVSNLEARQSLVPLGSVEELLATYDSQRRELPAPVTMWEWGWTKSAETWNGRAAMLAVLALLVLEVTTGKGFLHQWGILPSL
UniProt Q940U6, residues 27-316: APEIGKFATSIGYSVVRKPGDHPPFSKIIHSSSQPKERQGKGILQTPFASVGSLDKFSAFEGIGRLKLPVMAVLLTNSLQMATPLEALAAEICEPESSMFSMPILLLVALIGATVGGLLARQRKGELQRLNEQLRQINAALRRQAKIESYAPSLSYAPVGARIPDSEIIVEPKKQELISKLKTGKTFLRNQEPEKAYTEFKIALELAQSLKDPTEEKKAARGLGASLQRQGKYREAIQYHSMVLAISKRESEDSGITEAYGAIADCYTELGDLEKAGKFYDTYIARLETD
UniProt P42043: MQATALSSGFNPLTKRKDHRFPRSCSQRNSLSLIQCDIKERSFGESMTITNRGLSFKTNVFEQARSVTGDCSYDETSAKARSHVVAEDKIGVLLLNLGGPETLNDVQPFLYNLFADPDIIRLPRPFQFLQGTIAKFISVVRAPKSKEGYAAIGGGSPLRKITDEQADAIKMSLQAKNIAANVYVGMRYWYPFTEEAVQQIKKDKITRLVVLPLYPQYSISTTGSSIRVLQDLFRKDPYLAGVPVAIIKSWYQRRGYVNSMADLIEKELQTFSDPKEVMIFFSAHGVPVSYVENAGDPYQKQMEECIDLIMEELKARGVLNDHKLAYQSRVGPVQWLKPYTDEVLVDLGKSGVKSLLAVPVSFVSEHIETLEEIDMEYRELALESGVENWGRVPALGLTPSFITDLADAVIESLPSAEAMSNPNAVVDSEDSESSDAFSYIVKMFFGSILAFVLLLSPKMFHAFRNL

Key:
[1] = target: ferrochelatase 2 (FC2), yeast split-ubiquitin fusion (Arabidopsis thaliana) (UniProt O04921); experiment: two-hybrid
[2] = target: T1, protochlorophyllide oxidoreductase A (PORA), yeast split-ubiquitin fusion (Arabidopsis thaliana) (UniProt Q42536); experiment: two-hybrid
T1 sequence: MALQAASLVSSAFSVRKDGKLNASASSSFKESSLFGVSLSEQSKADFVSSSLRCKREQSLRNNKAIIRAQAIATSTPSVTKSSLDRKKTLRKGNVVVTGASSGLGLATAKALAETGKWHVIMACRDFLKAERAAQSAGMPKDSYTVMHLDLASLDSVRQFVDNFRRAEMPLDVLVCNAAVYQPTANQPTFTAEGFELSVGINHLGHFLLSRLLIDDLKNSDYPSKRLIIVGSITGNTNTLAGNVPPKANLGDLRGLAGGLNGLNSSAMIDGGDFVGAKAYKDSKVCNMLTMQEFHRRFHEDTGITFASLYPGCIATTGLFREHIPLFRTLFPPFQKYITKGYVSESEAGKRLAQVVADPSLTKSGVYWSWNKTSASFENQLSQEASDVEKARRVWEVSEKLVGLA

[3] = target: T2, protochlorophyllide oxidoreductase B (PORB), yeast split-ubiquitin fusion (Arabidopsis thaliana) (UniProt P21218); experiment: two-hybrid
T2 sequence: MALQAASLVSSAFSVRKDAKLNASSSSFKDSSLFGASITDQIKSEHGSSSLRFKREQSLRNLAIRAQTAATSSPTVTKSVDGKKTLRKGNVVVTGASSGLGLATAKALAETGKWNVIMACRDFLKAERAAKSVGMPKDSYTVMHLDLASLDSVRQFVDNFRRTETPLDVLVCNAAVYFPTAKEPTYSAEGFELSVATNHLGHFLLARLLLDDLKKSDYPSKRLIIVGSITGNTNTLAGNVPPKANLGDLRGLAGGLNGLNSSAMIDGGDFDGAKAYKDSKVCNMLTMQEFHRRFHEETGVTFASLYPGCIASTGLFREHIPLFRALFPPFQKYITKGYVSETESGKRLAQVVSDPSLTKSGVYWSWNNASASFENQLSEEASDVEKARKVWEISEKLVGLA

[4] = target: T3, protochlorophyllide oxidoreductase C (PORC), yeast split-ubiquitin fusion (Arabidopsis thaliana) (UniProt O48741); experiment: two-hybrid
T3 sequence: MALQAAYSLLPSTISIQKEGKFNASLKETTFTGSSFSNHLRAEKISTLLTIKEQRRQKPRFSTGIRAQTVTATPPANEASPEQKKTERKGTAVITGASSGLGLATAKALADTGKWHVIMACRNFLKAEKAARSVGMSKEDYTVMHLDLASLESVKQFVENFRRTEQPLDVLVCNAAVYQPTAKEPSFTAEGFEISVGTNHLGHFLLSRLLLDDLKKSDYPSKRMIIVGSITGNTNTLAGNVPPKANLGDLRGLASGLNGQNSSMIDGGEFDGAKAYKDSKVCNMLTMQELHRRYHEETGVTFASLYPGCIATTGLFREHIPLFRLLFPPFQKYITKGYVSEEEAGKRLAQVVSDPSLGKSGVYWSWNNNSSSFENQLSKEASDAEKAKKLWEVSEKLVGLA

[5] = target: FLU (FLUORESCENT IN BLUE LIGHT), BiFC fusion (Arabidopsis thaliana) (UniProt Q940U6); experiment: split reporter
[6] = target: T4, protochlorophyllide oxidoreductase A (PORA), BiFC fusion (Arabidopsis thaliana) (UniProt Q42536); experiment: split reporter
T4 sequence: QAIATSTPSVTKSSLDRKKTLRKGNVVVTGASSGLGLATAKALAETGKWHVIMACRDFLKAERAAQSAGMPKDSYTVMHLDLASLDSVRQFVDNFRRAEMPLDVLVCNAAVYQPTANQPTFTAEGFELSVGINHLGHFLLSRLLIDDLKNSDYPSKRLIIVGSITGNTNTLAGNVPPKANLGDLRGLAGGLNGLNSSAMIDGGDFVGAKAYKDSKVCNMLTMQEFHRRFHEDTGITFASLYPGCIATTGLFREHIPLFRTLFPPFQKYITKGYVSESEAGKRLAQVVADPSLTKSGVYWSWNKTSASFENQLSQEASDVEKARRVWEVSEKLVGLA

[7] = target: T5, protochlorophyllide oxidoreductase B (PORB), BiFC fusion (Arabidopsis thaliana) (UniProt P21218); experiment: split reporter
T5 sequence: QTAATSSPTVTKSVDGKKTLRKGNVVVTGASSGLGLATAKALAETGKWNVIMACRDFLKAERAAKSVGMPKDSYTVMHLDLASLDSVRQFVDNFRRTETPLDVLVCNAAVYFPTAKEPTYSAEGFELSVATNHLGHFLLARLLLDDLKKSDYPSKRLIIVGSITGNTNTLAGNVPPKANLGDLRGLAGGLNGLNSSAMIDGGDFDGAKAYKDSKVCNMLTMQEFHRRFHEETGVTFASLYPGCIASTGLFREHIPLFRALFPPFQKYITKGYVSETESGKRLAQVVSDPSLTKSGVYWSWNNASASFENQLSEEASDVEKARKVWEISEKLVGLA

[8] = target: T6, protochlorophyllide oxidoreductase C (PORC), BiFC fusion (Arabidopsis thaliana) (UniProt O48741); experiment: split reporter
T6 sequence: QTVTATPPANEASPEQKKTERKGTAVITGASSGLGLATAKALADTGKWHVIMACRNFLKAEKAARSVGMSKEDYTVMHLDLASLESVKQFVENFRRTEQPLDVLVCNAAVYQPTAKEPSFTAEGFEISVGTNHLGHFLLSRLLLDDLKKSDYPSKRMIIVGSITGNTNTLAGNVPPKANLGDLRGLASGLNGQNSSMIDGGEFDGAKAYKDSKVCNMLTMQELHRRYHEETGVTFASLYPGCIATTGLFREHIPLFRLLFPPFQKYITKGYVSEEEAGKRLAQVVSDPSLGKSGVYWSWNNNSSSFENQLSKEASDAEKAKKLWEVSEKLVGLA

[9] = target: T7, protoporphyrinogen oxidase 1 (PPO1), BiFC fusion (Arabidopsis thaliana) (UniProt P55826); experiment: split reporter
T7 sequence: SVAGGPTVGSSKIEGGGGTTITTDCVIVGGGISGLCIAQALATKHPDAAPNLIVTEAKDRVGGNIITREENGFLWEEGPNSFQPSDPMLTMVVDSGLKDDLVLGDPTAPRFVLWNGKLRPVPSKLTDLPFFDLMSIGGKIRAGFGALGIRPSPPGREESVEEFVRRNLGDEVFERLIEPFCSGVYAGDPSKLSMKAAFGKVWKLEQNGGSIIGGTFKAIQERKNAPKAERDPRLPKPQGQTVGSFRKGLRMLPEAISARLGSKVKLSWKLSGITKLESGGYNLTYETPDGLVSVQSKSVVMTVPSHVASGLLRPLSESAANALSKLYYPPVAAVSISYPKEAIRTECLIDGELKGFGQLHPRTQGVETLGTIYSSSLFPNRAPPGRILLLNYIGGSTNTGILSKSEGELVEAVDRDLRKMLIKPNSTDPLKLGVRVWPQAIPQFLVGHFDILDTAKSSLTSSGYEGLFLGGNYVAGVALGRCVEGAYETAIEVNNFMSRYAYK

[10] = target: FLU (FLUORESCENT IN BLUE LIGHT), BiFC fusion (Arabidopsis thaliana) (UniProt Q940U6); experiment: split reporter; remark: listed apart in the source

ferrochelatase 1 (FC1), yeast split-ubiquitin fusion (from UniProt P42043 1-466) (enzyme)
binding [1]: binds
binding [2]: no binding
binding [3]: no binding
binding [4]: no binding

ferrochelatase 2 (FC2), BiFC fusion (from UniProt O04921 84-512) (enzyme)
binding [5]: binds
binding [6]: binds
binding [7]: binds
binding [8]: binds
binding [9]: binds

ferrochelatase 2 (FC2), yeast split-ubiquitin fusion (from UniProt O04921 1-512) (enzyme)
binding [1]: binds
binding [2]: binds
binding [3]: binds
binding [4]: binds

B1: protochlorophyllide oxidoreductase B (PORB), BiFC fusion (enzyme, UniProt P21218 67-401)
chain: T5 sequence
binding [10]: binds
